{"sequences": {"note": "The chains behind the UniProt entries cited, without tags or fusion partners. Residues count along the entry.", "UniProt P02751, 1271-1359": "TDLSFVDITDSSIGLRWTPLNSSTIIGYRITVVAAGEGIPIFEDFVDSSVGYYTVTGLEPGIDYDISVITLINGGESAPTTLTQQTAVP"}, "source": "patent US20150330991A1", "about": "“METHOD FOR IMPROVING TARGET AFFINITY OF PEPTIDE” (GWANGJU INSTITUTE OF SCIENCE AND TECHNOLOGY, priority 2012, published 2015)", "molecular_target": "T1, ED-B (Homo sapiens, UniProt P02751)", "T1 construct": "Biopanning on ED-B domain", "experiment": "Ka(l/Ms)", "note": "For at least one compound, name, drawing or mass did not settle the structure. Peptide text beside a SMILES is read from it."}
{"compound": "CC[C@H](C)[C@H](NC(=O)CNC(=O)[C@H](CCCCN)NC(=O)[C@H](Cc1c[nH]c2ccccc12)NC(=O)[C@@H](NC(=O)[C@H](Cc1c[nH]c2ccccc12)NC(=O)[C@H](CCCCN)NC(=O)CNC(=O)[C@H](CC(N)=O)NC(=O)[C@H](CCC(=O)O)NC(=O)[C@H](Cc1c[nH]c2ccccc12)NC(=O)[C@@H](NC(=O)[C@H](Cc1c[nH]c2ccccc12)NC(=O)[C@H](CO)NC(=O)CNC(=O)[C@H](CCCNC(=N)N)NC(=O)[C@@H](NC(=O)[C@@H]1CCCN1C(=O)CNC(=O)CNC(=O)[C@@H](N)Cc1c[nH]c2ccccc12)C(C)C)[C@@H](C)O)[C@@H](C)O)C(=O)N[C@H](C(=O)N[C@@H](CCCNC(=N)N)C(=O)N[C@@H](CC(C)C)C(=O)N[C@@H](CCC(=O)O)C(=O)N[C@@H](CCC(N)=O)C(=O)O)[C@@H](C)CC", "note": "[Peptide 1] (H-WGGPVRGSWTWENGKWTWKGIIRLEQ-OH)", "values": [{"measurement": "Ka(l/Ms)", "value": "2.5e5", "unit": "l/Ms"}]}
